This passage reports binding results from publication PMC12469452.

Protein sequences, listed by entry. Tags and fused reporters are not part of them.
UniProt O46036: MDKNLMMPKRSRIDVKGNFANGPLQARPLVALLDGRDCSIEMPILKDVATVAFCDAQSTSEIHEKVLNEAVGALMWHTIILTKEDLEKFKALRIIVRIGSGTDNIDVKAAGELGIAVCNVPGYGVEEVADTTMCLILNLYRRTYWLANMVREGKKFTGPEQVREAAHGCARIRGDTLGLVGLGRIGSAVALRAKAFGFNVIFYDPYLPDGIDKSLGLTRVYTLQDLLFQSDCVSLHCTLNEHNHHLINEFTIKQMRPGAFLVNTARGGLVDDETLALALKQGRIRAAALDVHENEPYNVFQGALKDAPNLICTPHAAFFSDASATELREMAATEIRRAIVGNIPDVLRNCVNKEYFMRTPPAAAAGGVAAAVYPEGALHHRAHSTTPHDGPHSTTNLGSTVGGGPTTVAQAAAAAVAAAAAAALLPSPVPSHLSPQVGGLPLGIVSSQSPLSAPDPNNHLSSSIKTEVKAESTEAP

The test has as its target T1, EGFP-Tsh fusion protein (Teashirt tagged with EGFP at the genomic tsh gene) (Drosophila melanogaster (endogenous in third instar eye–antennal discs)) (UniProt P22265).
T1 sequence: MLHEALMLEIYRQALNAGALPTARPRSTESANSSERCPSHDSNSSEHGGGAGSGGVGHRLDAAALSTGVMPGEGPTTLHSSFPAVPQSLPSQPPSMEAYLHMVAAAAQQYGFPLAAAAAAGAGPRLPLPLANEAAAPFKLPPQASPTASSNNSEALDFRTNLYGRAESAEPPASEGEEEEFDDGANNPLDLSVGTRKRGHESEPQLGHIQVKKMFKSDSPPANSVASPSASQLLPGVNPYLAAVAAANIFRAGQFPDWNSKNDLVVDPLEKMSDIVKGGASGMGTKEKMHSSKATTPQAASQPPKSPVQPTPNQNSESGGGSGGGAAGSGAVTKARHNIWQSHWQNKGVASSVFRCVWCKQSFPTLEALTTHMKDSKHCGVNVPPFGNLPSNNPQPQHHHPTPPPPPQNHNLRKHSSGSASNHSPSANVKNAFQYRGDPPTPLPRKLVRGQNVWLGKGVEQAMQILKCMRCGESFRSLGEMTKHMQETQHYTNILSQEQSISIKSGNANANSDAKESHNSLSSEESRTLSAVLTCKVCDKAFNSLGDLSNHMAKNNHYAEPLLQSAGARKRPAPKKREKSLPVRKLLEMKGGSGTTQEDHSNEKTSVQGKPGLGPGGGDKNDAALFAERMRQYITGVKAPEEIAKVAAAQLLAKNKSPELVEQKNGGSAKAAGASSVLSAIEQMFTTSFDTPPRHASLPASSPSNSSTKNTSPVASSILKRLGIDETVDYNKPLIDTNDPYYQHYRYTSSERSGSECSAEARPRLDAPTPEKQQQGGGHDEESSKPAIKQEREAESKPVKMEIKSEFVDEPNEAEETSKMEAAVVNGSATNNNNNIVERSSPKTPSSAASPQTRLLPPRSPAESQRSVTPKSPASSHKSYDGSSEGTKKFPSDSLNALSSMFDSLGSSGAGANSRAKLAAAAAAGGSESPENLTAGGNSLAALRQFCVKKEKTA
Description: co-IP; lysate (RIPA buffer) of 250 third instar larval eye–antennal discs of EGFP-tsh flies; rabbit anti-EGFP antibody and Dynabeads Protein-G at RT; Western blot with anti-CtBP antibody; control: Protein G beads without antibody. For orientation: In western blotting, separated proteins are transferred to a membrane and probed.

No constants are given. Whether binding was seen depends on the method and setting. In cells and extracts the contact can be indirect. Some entries that bind do so weakly or less than the wild type. Sequences can lack the tags named with a protein.

Take “C-terminal Binding Protein (CtBP), 50 kDa long isoform (from UniProt O46036 1-476)”: the binding result is “binds”.
